Tests used:
Format in all cases: functional
[1] = tested on: Panel NCI-60 (60 carcinoma cell lines); assay: In vitro mean growth inhibitory activity against 60-cell panel; details: Homo sapiens
[2] = tested on: Panel NCI-60 (60 carcinoma cell lines); assay: In vitro mean growth lethal concentration against 60-cell panel; details: Homo sapiens, read-out: Mean LC50
[3] = tested on: Panel NCI-60 (60 carcinoma cell lines); assay: In vitro mean growth lethal concentration in colon subpanel against 60-cell panel; details: Homo sapiens, read-out: Mean LC50
[4] = tested on: Panel NCI-60 (60 carcinoma cell lines); assay: In vitro mean growth lethal concentration in renal subpanel against 60-cell panel; details: Homo sapiens, read-out: Mean LC50
ACHN = assay: In vitro lethal concentration against most sensitive ACHN cell line; details: Homo sapiens, read-out: LC50 (the source's name)
HCT-116 = assay: In vitro lethal concentration against most sensitive colon HCT116 cell line; details: Homo sapiens, read-out: LC50 (the source's name)
SW-620 = assay: In vitro lethal concentration against least sensitive colon SW-620 cell line; details: Homo sapiens, read-out: LC50 (the source's name)

OC1(c2nc3ccccc3s2)CCC2(CC1)OCCO2
> 100 µM: GI50 [1] | CC50 [2] | CC50 [3] | CC50 [4] | CC50 (ACHN) | CC50 (HCT-116) | CC50 (SW-620)

Source: ChEMBL document CHEMBL1145965, “4-Substituted 4-hydroxycyclohexa-2,5-dien-1-ones with selective activities against colon and renal cancer cell lines” (J Med Chem, 2003)
